According to US20140056935A1 (priority 2011, published 2014):
HELM strings list residues between dots; [ac] is acetyl, [am] amide, other brackets name non-standard units.

Assay: general procedure: Fmoc solid-phase peptide synthesis; NovaSyn TGR; DIPCI/HOBt; double coupling with HBTU/HOBt/DIPEA
Details: whole synthesis, scale 0.20 mmol

PEPTIDE1{W.M.E.W.D.R.E.I.N.N.Y.T.S.L.I.H.S.L.I.E.E.S.Q.N.Q.Q.E.K.N.E.Q.E.L.L.R.E.R.E.R.E.G}$$$$V2.0
isolated mass: 5.3 mg
isolated yield: yield 1%
